Results deposited as PubChem BioAssay AID504786 (Drosophila RNAi Screening Center, 2011)
The deposit covers about 21,000 reagents; below is a random part of those that have a named target and a result. 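Primary screen; positive scores mean lost reporter signal, so the sign may be inverted from the usual convention.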 A plus sign joins genes that one reagent is predicted to hit. No sequences are given here.

Assay: 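Knock-downs reducing HIF reporter induction by the iron chelator DFO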 (primary screen)
Cells: Drosophila S2 cells with a stable HIF luciferase reporter
Reagents: long dsRNA against Drosophila genes, about 0.2 µg dsRNA per well of a 384-well plate
Duration: three days of knock-down, then 20 h of DFO before reading
Treatment: desferrioxamine (DFO) at 100 µM, an iron chelator that mimics hypoxia, for 20 h
Detection: 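HIF reporter luminescence in cells given 100 µM DFO for 20 h, using the mouse ldh-a hypoxia-response element, scored as per-plate z-scores; higher means greater loss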
Direction: z-score: higher = stronger loss of HIF reporter signal

The first 3 records, ahead of the listing:
target,dsRNA,"z-score, replicate 1","z-score, replicate 2","z-score, replicate 3","z-score, replicate 4"
snRNA:U1:95Cc,DRSC13640,4.2,0.2,,
Suv3,DRSC12335,0,-0.2,,
CG3107,DRSC04888,-0.3,-0.5,,

Results, from the first entry:
target,dsRNA,"z-score, replicate 1","z-score, replicate 2","z-score, replicate 3","z-score, replicate 4"
snRNA:U1:95Cc,DRSC13640,4.2,0.2,,
Suv3,DRSC12335,0,-0.2,,
CG3107,DRSC04888,-0.3,-0.5,,
Ilp2,DRSC10968,0,-0.1,,
CG15553,DRSC15091,-0.2,-0.1,,
CG32121,DRSC09265,-0.5,-0.3,,
CG15117,DRSC06539,-0.1,-0.2,,
Ir64a,DRSC09759,0.4,0.1,,
Ir64a,DRSC09760,-0.4,-0.8,,
CG9512,DRSC20189,-0.3,0,,
mRpL47,DRSC16827,0.9,0.8,,
CG15696,DRSC15118,0.4,0.2,,
Sgf11,DRSC09987,-0.5,-0.4,,
lmd,DRSC15618,-0.2,-0.1,,
CG1638,DRSC15132,-0.2,0.3,,
Obp99c,DRSC16262,0,-0.1,,
CG12917,DRSC06231,-0.3,-0.3,,
Remo,DRSC19710,-0.1,-0.2,,
twit,DRSC03210,-0.3,-0.3,,
CG9436,DRSC05005,-0.1,-0.1,,
CG9997,DRSC16591,0,-0.3,,
CG1764,DRSC19779,-0.2,-0.5,,
Ehbp1,DRSC06561,-0.2,-0.5,,
CG15293,DRSC01919,-0.2,-0.6,,
CG14538 (retired record),DRSC02396,-0.2,-0.2,,
Rnb,DRSC16325,-0.3,0,,
dsx,DRSC12649,-0.2,-0.8,,
dsx,DRSC16934,-0.3,0,0.4,-0.4
CG12093,DRSC08252,-0.2,-0.2,,
Su(var)2-HP2,DRSC06204,0,-0.3,,
HP4,DRSC10958,-0.4,-0.4,,
SmydA-6,DRSC07341,-0.3,0,,
CG15824,DRSC00473,-0.3,-0.2,,
Rpn2,DRSC16839,6.1,5.8,,
Gr23a,DRSC00410,-0.4,-0.5,,
gdrd,DRSC10020,0,0,,
CG15643,DRSC19679,-0.1,-0.4,,
Unc-76,DRSC18193,-0.3,-0.4,,
Unc-76,DRSC18560,-0.1,-0.9,,
Ccdc85,DRSC00501,1.1,0.3,,
CG31897,DRSC01020,-0.5,-0.3,,
CG8170,DRSC07087,-0.2,-0.4,,
CG17105,DRSC02574,0.2,1,,
cmet,DRSC03511,-0.3,-0.1,,
Oct-TyrR,DRSC11883,-0.2,-0.2,,
CG42784,DRSC02534,-0.3,-0.4,,
CG42784,DRSC02535,0.3,2.9,,
Acbp4,DRSC11023,-0.2,-0.6,,
CG32845,DRSC07867,-0.3,-0.5,,
CG7091,DRSC12944,-0.3,-0.5,,
CG7091,DRSC16197,0,0.3,,
CG4955,DRSC19927,-0.2,-1,,
Cubn,DRSC18256,-0.2,-0.1,,
CG33251 (retired record) + CG9915,DRSC20217,0.6,1,,
CG8117,DRSC20082,-0.4,0,,
CG31274 + MESK4,DRSC13202,-0.1,-0.1,,
